PubChem BioAssay AID720505 – Drosophila RNAi Screening Center | 2013
The deposit covers about 20,000 reagents; this is an unselected part of those with a known target gene and a result. Of all reagents, about 2,100 (10%) are marked active. 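Raw plate signals without normalisation; calls rest on control-based scores that were not deposited; replicate 2 separates called from uncalled poorly.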 A plus sign joins genes that one reagent is predicted to hit. The record does not give: the amount of reagent, the time to read-out.

- Aim: 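Genes needed for store-operated calcium entry in fly cells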 (primary screen)
- System: Drosophila S2R+ cells
- Knock-down reagent: long dsRNA against Drosophila genes
- Challenge: thapsigargin (2 µM) in calcium-free buffer to empty internal stores, then 2 mM calcium added back
- Read-out: 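Fluo-4 signal in 384-well plates read on a FLIPR after thapsigargin (2 µM, calcium-free) store depletion and 2 mM calcium add-back; unnormalised mean endpoint per well; screen run twice, selected wells retested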
- Direction: calcium signal and retest calcium signal: higher = more calcium entry after store depletion
- Rule for the call: 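Knock-downs counted as hits when calcium entry dropped relative to STIM1 positive and Rho1 negative controls present on each plate; roughly 1500 genes called, with reductions of differing size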
- Meaning of the calls: active = called as lowering calcium entry; inactive = not called

gene knocked down	DRSC id	calcium signal, replicate 1	calcium signal, replicate 2	retest calcium signal, replicate 1	retest calcium signal, replicate 2	outcome
Recs1	DRSC16545	98.8	119			inactive
Acsx3 (Acyl-CoA synthetase X3)	DRSC14309	138	301			inactive
prd1 (pruning defect 1)	DRSC15227	134	90.2			inactive
CG33489	DRSC10588	120	132			inactive
CG9682	DRSC16536	95.1	144			inactive
Lst (Limostatin)	DRSC07146	127	107			inactive
Tsf2 (Transferrin 2)	DRSC09751	96	111			inactive
CG17134	DRSC02583	111	125			inactive
CG13786	DRSC02289	127	81			inactive
sns (sticks and stones)	DRSC06423	119	194			inactive
sns (sticks and stones)	DRSC07687	90	166			inactive
sns (sticks and stones)	DRSC07688	132	169			inactive
sns (sticks and stones)	DRSC07689	108	135			inactive
sns (sticks and stones)	DRSC07691	83	101			inactive
sns (sticks and stones)	DRSC07692	95.6	138			inactive
CG9815	DRSC04567	97.1	152			inactive
CG10163	DRSC09710	107	96			inactive
HGTX	DRSC09319					inactive
HGTX	DRSC11181	98.3	163			inactive
CG10126	DRSC14191	98.9	103			inactive
Acsx1R (Acyl-CoA synthetase X1 R)	DRSC14339	141	121			inactive
CR12628 + Mgstl	DRSC03702	177	108	145	152	inactive
CR12628 + Mgstl	DRSC20568	174	108			inactive
CG15597	DRSC12283	115	111	109	87.6	inactive
Cks85A (Cyclin-dependent kinase subunit 85A)	DRSC16562	117	156			inactive
CG42615	DRSC05121	51	57.4			active
CG11368	DRSC17778	292	112			inactive
mei-S332 (meiotic from via Salaria 332)	DRSC04704	108	95.2			inactive
CG43367 + asRNA:CR32252	DRSC21715	147	93.9			inactive
ND-42 (NADH dehydrogenase (ubiquinone) 42 kDa subunit)	DRSC16754	112	191			inactive
Spn28B (Serpin 28B)	DRSC02982	62	63.3	165	93.9	active
Sdb (SAXO downstream of blistered)	DRSC06272	99.8	171			inactive
Sdb (SAXO downstream of blistered)	DRSC06273	103	146			inactive
Sdb (SAXO downstream of blistered)	DRSC07155	185	184			inactive
nahoda	DRSC03954	94.5	9682			inactive
nahoda	DRSC04126	135	99.7			inactive
ArgRS (Arginyl-tRNA synthetase)	DRSC20138	112	148			inactive
Nepl6 (Neprilysin-like 6)	DRSC03242	127	130			inactive
CG9855	DRSC12344	67.6	133	153	145	active
CG9649	DRSC16534	101	167			inactive
CG4686	DRSC15622	217	157			inactive
CG5122	DRSC02816	109	84.8			inactive
CG31957	DRSC00207	102	104			inactive
Sf3b2 (Splicing factor 3b subunit 2)	DRSC00619	55.8	97.2			active
CG5126	DRSC00680	145	218			inactive
Kdm2 (Lysine demethylase 2)	DRSC14286	120	165			inactive
Pxd (Peroxidase)	DRSC16805	145	142			inactive
inv (invected)	DRSC07633	105	208			inactive
CG9915	DRSC20217	92.7	119			inactive
CG9915	DRSC21565	172	104			inactive
Su(var)3-7 (Suppressor of variegation 3-7)	DRSC16872	105	143			inactive
CNMa (CNMamide)	DRSC08405	72.6	128			inactive
rpr (reaper)	DRSC11390	97.9	173			inactive
CG32302	DRSC08340	69.5	119			inactive
Got2 (Glutamate oxaloacetate transaminase 2)	DRSC00643	159	264			inactive
Nazo	DRSC14343	89.5	143			inactive
Rab27	DRSC18567	59.6	81			active
CG9257	DRSC03173	172	73.4			inactive
CG32152	DRSC22906	117	224			inactive
hgo (homogentisate 1,2-dioxygenase)	DRSC03544	176	186			inactive
modSP (modular serine protease)	DRSC16726	125	137			inactive
modSP (modular serine protease)	DRSC16857	103	112			inactive
modSP (modular serine protease)	DRSC21489	126	99.4			inactive
Cndp2 (Cytosolic non-specific dipeptidase 2)	DRSC04873	162	201			inactive
CG15345 (retired record)	DRSC18030	101	259	113	9297	active
CG15345 (retired record)	DRSC22712	136	213			inactive
Mnat9 (microtubule-associated Nat9)	DRSC14325	85.2	130			inactive
CG10286	DRSC12520	117	147			inactive
CG31122	DRSC14787	195	280	126	117	inactive
CG31122	DRSC16286	237	207			inactive
CG3626	DRSC18318	279	148			inactive
CG13049	DRSC09930	91.2	96.1			inactive
ThrRS (Threonyl-tRNA synthetase)	DRSC02843	100	110			inactive
CG34115	DRSC03840	125	7704			inactive
CG11892	DRSC14428	88	86			inactive
Delta	DRSC16648	221	180			inactive
CG32554	DRSC22713	142	190			inactive
AnxB10 (Annexin B10)	DRSC20677	132	151			inactive
exd (extradenticle)	DRSC20330	82.9	90			inactive
CG4362	DRSC15567	72.8	97			active
CG13728	DRSC10056	68.7	135			inactive
vrs (versager)	DRSC15832	141	82.4			inactive
app (approximated)	DRSC10246	91.4	112			inactive
app (approximated)	DRSC10526	106	82.2			inactive
